These are yes or no findings as the source states them, for the method shown. Some entries that bind do so weakly or less than the wild type.
Key:
[1] = molecular target: human GLP-1 receptor (Abcam) (human) (UniProt P43220); assay: SPR, legend of FIG. 1(B)-1(G)
[2] = molecular target: human GLP-1 receptor (Abcam) (human) (UniProt P43220); assay: BLI, legend of FIG. 1(H)
[3] = molecular target: human GLP-1 receptor (Abcam) (human) (UniProt P43220); assay: SPR, human GLP-1 receptor immobilised

Sequences of proteins named here, by UniProt entry; tags and fusion partners are left off. Residues count along the entry.
UniProt P43220, residues 24-145: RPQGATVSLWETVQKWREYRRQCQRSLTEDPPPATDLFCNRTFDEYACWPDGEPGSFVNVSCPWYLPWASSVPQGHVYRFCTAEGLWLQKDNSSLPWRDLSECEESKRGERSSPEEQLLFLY

Measured: binding

B1: GLP-1(A2G)-hyFc9 (Fc fusion)
chain: HGEGTFTSDVSSYLEGQAAKEFIAWLVKGRGAKATTAPATTRNTGRGGEEKKKEKEKEEQEERETKTPECPSHTQPLGVFLFPPKPKDTLMISRTPEVTCVVVDVSQEDPEVQFNWYVDGVEVHNAKTKPREEQFNSTYRVVSVLTVLHQDWLNGKEYKCKVSNKGLPSSIEKTISKAKGQPREPQVYTLPPSQEEMTKNQVSLTCLVKGFYPSDIAVEWESNGQPENNYKTTPPVLDSDGSFFLYSRLTVDKSRWQEGNVFSCSVMHEALHNHYTQKSLSLSLGK
modifications: O-glycosylation at the IgD hinge region (positions not stated)
binds: all assays above

— patent publication US20200282021A1
